In publication PMC5971037, “Synthesis and evaluation of antimicrobial, antitubercular and anticancer activities of 2-(1-benzoyl-1H-benzo[d]imidazol-2-ylthio)-N-substituted acetamides” (Chemistry Central Journal, 2018):

System: MCF7 (human breast cancer) cell line
Experiment: Sulforhodamine-B (SRB) cytotoxicity assay
Format: cell-based

CC/C(=C(\c1ccccc1)c1ccc(OCCN(C)C)cc1)c1ccccc1 [Tamoxifen, tamoxifen, reference compound]
IC50: 4.3 µM
